Data as given in PubChem BioAssay AID1259254 (NCATS, 2017).

Test: 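Gene knock-downs that lead to re-replication, shown by excess G2 DNA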 (primary screen)
System: human HCT116 colorectal cancer cells
Reagent: single siRNA against human genes
Time to read-out: 3 days
Measured: 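Nuclei stained with Hoechst and imaged; cell-cycle phase assigned by DNA content; G2 share scaled per plate, non-targeting siRNA 0%, GMNN siRNA 100%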
Direction: G2 robust z-score: higher = more G2 cells, more excess DNA replication
Rule for the call: 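Active siRNAs have a G2 robust z of 5 or more median absolute deviations over the median, which in these data means about 38% or higher of GMNN control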
This is an unselected part of about 59,000 reagents. About 1,550 of all reagents (2.6%) were called active. 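G2 share is only a proxy for re-replication; each gene was hit by three separate siRNAs, and active genes were retested.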 Reagents against one gene are numbered here. Further read-outs or replicates are left out here. Not given: the amount of reagent.

After knock-down of TMSB15A #1, the screen gave G2 robust z-score 0.362; inactive.
After knock-down of TMSB15A #2, the screen gave G2 robust z-score 2.36; inactive.
TMSB15A #3 gave G2 robust z-score 1.78; inactive.
Knock-down of SKIL #1 came out at: G2 robust z-score 0.472; inactive.
With knock-down of SKIL #2, the record shows G2 robust z-score 0.325; inactive.
SKIL #3 scored G2 robust z-score 1.3; inactive.
Against TMEM208 #1 the deposit lists G2 robust z-score 2.55; inactive.
Against TMEM208 #2, the entry reads G2 robust z-score -0.517; inactive.
Depletion of TMEM208 #3 gave: G2 robust z-score 7.54; active.
After knock-down of CDKL5 #1, the screen gave G2 robust z-score 5.21; active.
With knock-down of CDKL5 #2, the record shows G2 robust z-score -1.21; inactive.
Silencing of CDKL5 #3 gave: G2 robust z-score -0.59; inactive.
GPD2 #1 showed G2 robust z-score 0.269; inactive.
GPD2 #2 gave G2 robust z-score 0.242; inactive.
GPD2 #3 scored G2 robust z-score -1.01; inactive.

In a second layout: 2 of the entries above.
gene symbol | siRNA no. | G2 robust z-score | Outcome
TMSB15A | 3 | 1.78 | inactive
SKIL | 1 | 0.472 | inactive

Continued:
HDX #1 gave G2 robust z-score 0.47; inactive.
Silencing of HDX #2 came out at: G2 robust z-score 1.82; inactive.
With knock-down of HDX #3, the screen gave G2 robust z-score -0.678; inactive.
Depletion of AKT1 #1 came out at: G2 robust z-score 0.109; inactive.
Knock-down of AKT1 #2 resulted in: G2 robust z-score -0.857; inactive.
For AKT1 #3, the entry reads G2 robust z-score 0.183; inactive.
THBS4 #1 gave G2 robust z-score -1.18; inactive.
After knock-down of THBS4 #2, the screen gave G2 robust z-score 1.38; inactive.
THBS4 #3 showed G2 robust z-score 1.35; inactive.
